The target in assay [1] is T1, Ubiquitin specific protease 22 (USP22), endogenous (human (endogenous in HCCLM3 and Huh7)) (UniProt Q9UPT9).
T1 sequence: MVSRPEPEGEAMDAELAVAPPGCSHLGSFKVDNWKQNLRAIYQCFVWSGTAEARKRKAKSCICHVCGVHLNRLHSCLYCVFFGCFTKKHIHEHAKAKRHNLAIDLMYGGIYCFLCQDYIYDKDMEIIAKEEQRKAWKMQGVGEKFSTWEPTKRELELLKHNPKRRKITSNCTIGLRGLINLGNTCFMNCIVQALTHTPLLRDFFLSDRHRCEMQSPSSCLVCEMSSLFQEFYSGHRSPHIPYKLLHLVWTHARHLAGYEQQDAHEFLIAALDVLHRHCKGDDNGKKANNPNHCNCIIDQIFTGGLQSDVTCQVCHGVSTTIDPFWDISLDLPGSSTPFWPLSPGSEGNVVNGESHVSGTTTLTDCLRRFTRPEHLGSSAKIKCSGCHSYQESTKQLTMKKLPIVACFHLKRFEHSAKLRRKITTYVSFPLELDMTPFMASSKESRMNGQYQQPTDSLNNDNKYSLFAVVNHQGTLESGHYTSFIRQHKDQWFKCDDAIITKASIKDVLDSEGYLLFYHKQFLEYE
Put plainly: co-IP; endogenous proteins; whole cell lysates of HCCLM3 and Huh7 cells immunoprecipitated with USP22 antibody or IgG, Protein G Sepharose 4 Fast Flow, western blotting. In general terms: In western blotting, separated proteins are transferred to a membrane and probed.

Assay [2] concerns the target T2, FLAG-USP22, full-length (FL) (human) (UniProt Q9UPT9).
T2 sequence: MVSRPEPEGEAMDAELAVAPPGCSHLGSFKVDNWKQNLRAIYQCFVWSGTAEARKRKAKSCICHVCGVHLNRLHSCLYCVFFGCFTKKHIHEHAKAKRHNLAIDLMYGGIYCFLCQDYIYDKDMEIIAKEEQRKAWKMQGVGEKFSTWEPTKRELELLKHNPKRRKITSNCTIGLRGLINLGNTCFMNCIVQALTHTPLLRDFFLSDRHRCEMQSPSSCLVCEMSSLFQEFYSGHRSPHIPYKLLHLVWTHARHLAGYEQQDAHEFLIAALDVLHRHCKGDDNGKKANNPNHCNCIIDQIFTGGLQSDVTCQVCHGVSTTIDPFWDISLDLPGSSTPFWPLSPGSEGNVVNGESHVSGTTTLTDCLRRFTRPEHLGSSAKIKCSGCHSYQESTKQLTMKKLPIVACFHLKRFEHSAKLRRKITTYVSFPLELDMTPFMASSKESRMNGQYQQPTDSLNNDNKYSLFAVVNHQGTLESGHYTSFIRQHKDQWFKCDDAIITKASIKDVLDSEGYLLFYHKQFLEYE
Nature of the assay: co-IP; HEK293 cells transfected with expression plasmids of ZEB1 and USP22 (full length or truncated mutants) or vector for 24 h; whole cell lysates.

Results are given in words; binding and its absence hold for the method and conditions named. In cells and extracts the contact can be indirect. Some results given as binding are weak or reduced against the parent protein; the word gives no strength. For some assays here: Where a sequence is shown, tags or fusion partners need not be part of it.

B1: ZEB1, endogenous (protein, UniProt P37275 1-1124)
chain: MADGPRCKRRKQANPRRNNVTNYNTVVETNSDSDDEDKLHIVEEESVTDAADCEGVPEDDLPTDQTVLPGRSSEREGNAKNCWEDDRKEGQEILGPEAQADEAGCTVKDDECESDAENEQNHDPNVEEFLQQQDTAVIFPEAPEEDQRQGTPEASGHDENGTPDAFSQLLTCPYCDRGYKRFTSLKEHIKYRHEKNEDNFSCSLCSYTFAYRTQLERHMTSHKSGRDQRHVTQSGCNRKFKCTECGKAFKYKHHLKEHLRIHSGEKPYECPNCKKRFSHSGSYSSHISSKKCISLIPVNGRPRTGLKTSQCSSPSLSASPGSPTRPQIRQKIENKPLQEQLSVNQIKTEPVDYEFKPIVVASGINCSTPLQNGVFTGGGPLQATSSPQGMVQAVVLPTVGLVSPISINLSDIQNVLKVAVDGNVIRQVLENNQANLASKEQETINASPIQQGGHSVISAISLPLVDQDGTTKIIINYSLEQPSQLQVVPQNLKKENPVATNSCKSEKLPEDLTVKSEKDKSFEGGVNDSTCLLCDDCPGDINALPELKHYDLKQPTQPPPLPAAEAEKPESSVSSATGDGNLSPSQPPLKNLLSLLKAYYALNAQPSAEELSKIADSVNLPLDVVKKWFEKMQAGQISVQSSEPSSPEPGKVNIPAKNNDQPQSANANEPQDSTVNLQSPLKMTNSPVLPVGSTTNGSRSSTPSPSPLNLSSSRNTQGYLYTAEGAQEEPQVEPLDLSLPKQQGELLERSTITSVYQNSVYSVQEEPLNLSCAKKEPQKDSCVTDSEPVVNVIPPSANPINIAIPTVTAQLPTIVAIADQNSVPCLRALAANKQTILIPQVAYTYSTTVSPAVQEPPLKVIQPNGNQDERQDTSSEGVSNVEDQNDSDSTPPKKKMRKTENGMYACDLCDKIFQKSSSLLRHKYEHTGKRPHECGICKKAFKHKHHLIEHMRLHSGEKPYQCDKCGKRFSHSGSYSQHMNHRYSYCKREAEERDSTEQEEAGPEILSNEHVGARASPSQGDSDERESLTREEDEDSEKEEEEEDKEMEELQEEKECEKPQGDEEEEEEEEEVEEEEVEEAENEGEEAKTEGLMKDDRAESQASSLGQKVGESSEQVSEEKTNEA
Consider B1, for which the binding entry in assay [1] is recorded as “binds”.

B2: ZEB1, expressed from plasmid in HEK293 cells (protein, UniProt P37275 1-1124)
chain: MADGPRCKRRKQANPRRNNVTNYNTVVETNSDSDDEDKLHIVEEESVTDAADCEGVPEDDLPTDQTVLPGRSSEREGNAKNCWEDDRKEGQEILGPEAQADEAGCTVKDDECESDAENEQNHDPNVEEFLQQQDTAVIFPEAPEEDQRQGTPEASGHDENGTPDAFSQLLTCPYCDRGYKRFTSLKEHIKYRHEKNEDNFSCSLCSYTFAYRTQLERHMTSHKSGRDQRHVTQSGCNRKFKCTECGKAFKYKHHLKEHLRIHSGEKPYECPNCKKRFSHSGSYSSHISSKKCISLIPVNGRPRTGLKTSQCSSPSLSASPGSPTRPQIRQKIENKPLQEQLSVNQIKTEPVDYEFKPIVVASGINCSTPLQNGVFTGGGPLQATSSPQGMVQAVVLPTVGLVSPISINLSDIQNVLKVAVDGNVIRQVLENNQANLASKEQETINASPIQQGGHSVISAISLPLVDQDGTTKIIINYSLEQPSQLQVVPQNLKKENPVATNSCKSEKLPEDLTVKSEKDKSFEGGVNDSTCLLCDDCPGDINALPELKHYDLKQPTQPPPLPAAEAEKPESSVSSATGDGNLSPSQPPLKNLLSLLKAYYALNAQPSAEELSKIADSVNLPLDVVKKWFEKMQAGQISVQSSEPSSPEPGKVNIPAKNNDQPQSANANEPQDSTVNLQSPLKMTNSPVLPVGSTTNGSRSSTPSPSPLNLSSSRNTQGYLYTAEGAQEEPQVEPLDLSLPKQQGELLERSTITSVYQNSVYSVQEEPLNLSCAKKEPQKDSCVTDSEPVVNVIPPSANPINIAIPTVTAQLPTIVAIADQNSVPCLRALAANKQTILIPQVAYTYSTTVSPAVQEPPLKVIQPNGNQDERQDTSSEGVSNVEDQNDSDSTPPKKKMRKTENGMYACDLCDKIFQKSSSLLRHKYEHTGKRPHECGICKKAFKHKHHLIEHMRLHSGEKPYQCDKCGKRFSHSGSYSQHMNHRYSYCKREAEERDSTEQEEAGPEILSNEHVGARASPSQGDSDERESLTREEDEDSEKEEEEEDKEMEELQEEKECEKPQGDEEEEEEEEEVEEEEVEEAENEGEEAKTEGLMKDDRAESQASSLGQKVGESSEQVSEEKTNEA
B2: the binding entry in assay [2] is listed as “binds”.

These data come from publication PMC10008583.
